The record followed here is PMC7819943, “Rice protein-binding microarrays: a tool to detect cis-acting elements near promoter regions in rice”.

The other results are listed elsewhere or left out.

The experiment concerns the target T1, OsSMF1 (Oryza sativa, UniProt Q6ZLB0 1-436).
T1 sequence: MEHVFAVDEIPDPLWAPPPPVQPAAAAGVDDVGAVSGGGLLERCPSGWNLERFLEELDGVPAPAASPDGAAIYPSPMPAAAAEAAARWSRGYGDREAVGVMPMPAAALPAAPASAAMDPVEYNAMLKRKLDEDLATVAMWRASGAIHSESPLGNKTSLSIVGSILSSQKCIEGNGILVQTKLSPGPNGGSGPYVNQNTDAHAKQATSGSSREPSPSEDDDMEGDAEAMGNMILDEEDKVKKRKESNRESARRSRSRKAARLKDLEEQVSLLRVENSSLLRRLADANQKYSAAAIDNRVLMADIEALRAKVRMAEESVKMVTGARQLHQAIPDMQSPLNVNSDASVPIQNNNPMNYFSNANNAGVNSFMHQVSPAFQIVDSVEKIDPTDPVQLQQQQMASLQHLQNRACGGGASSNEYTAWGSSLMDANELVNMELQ
The experiment is described as follows: protein-binding microarray (RPBM); PBS, 2% BSA, 51.3 ng/ul salmon testes DNA, 50 uM zinc acetate, 200 nM TF, 25 C, 1 h; high values mean tight binding. The settings on record: protein: recombinant; tags: N-terminal polyhistidine and DsRed monomer fusion (pET32a); chain copies: 2; label: CyDye5-dUTP incorporated in the synthesized complementary strand; 3' TTTTT single-stranded linker to array surface; dsDNA, one strand shown. The gist of the method:
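Binding signal is defined as the fluorescence intensity of each feature in arbitrary units, read on an Axon 4000B scanner. Transcription factors with N-terminal polyhistidine and DsRed fusions came from E. coli BL21-CodonPlus and were purified on Ni–NTA. They were incubated at 200 nM for 1 h at 25 °C on a custom Agilent array that had been made double-stranded with Cy5-dUTP, with 50 µM zinc acetate present, and the array was washed.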
As to “TTTATATAATAGTTACTTACTATACTATTAATACTTGATTCGGAGTCACCTAGTGCAG”, the binding signal is 16600 fluorescence intensity (a.u.).
The value for “CCCCTACCAGTGACGCATTAGGTCCTCCTGGCTAGCAAAACGGAGTCACCTAGTGCAG” was 4750 fluorescence intensity (a.u.); that for “TATTTATTATCGCGTGATGCCTGCATCAGCTTATATCTGTCGGAGTCACCTAGTGCAG” was 3670 fluorescence intensity (a.u.).
Consider “TTATATTCTTCGCGGGGCCGAGCCGATTCAACGCGCAGTGCGGAGTCACCTAGTGCAG”, for which the binding signal was 3220 fluorescence intensity (a.u.).
Consider “TATTCGTTGTAGACAGGGCTTCAGAACAGTGACTTGGGCCCGGAGTCACCTAGTGCAG”, for which the binding signal is 3290 fluorescence intensity (a.u.).
Regarding “AAGCACTAATGGGCCGGATAAGCTTGCCACGTAAGCCCGGCGGAGTCACCTAGTGCAG”, the binding signal was 26900 fluorescence intensity (a.u.).
As to “TCACCACGTTCCTCCGCCTTCGCCGTCAGCTTTCCCCTTCCGGAGTCACCTAGTGCAG”, the binding signal was 3720 fluorescence intensity (a.u.).
The value for “TACTAGATTGAGGTGGTTAGTGACTCTAGGATCACCGCAACGGAGTCACCTAGTGCAG” was 3550 fluorescence intensity (a.u.).
Turning to “GCCACCAGCATCCACTCCGCCGTCACCACCGTCCCCTTCCCGGAGTCACCTAGTGCAG”, the binding signal is 3320 fluorescence intensity (a.u.).
Turning to “CCTGTTGATTGGTTAGCCCAGCCCATGATGTAGCCCATGACGGAGTCACCTAGTGCAG”, the binding signal is 3630 fluorescence intensity (a.u.).
The figure for “GATTCCTCCCTCCCATTCCCCACCTCACCTCACCTCCTCCCGGAGTCACCTAGTGCAG” is 3840 fluorescence intensity (a.u.); for “TAATTTCTTATAGCTTGTACTACTTCTGCTTGCTCTGGTTCGGAGTCACCTAGTGCAG” it is 15700 fluorescence intensity (a.u.).
On to “TGGTGGCAAACAGACGATGACGGTGCCACAGATGGATGGACGGAGTCACCTAGTGCAG”, for which the binding signal is 24600 fluorescence intensity (a.u.).
The figure for “CGTCGTCGCCGTCGTCGCCGCCGTTGCGCAACGACGGTTGCGGAGTCACCTAGTGCAG” is 3350 fluorescence intensity (a.u.); for “TGATGGCAACGACAAGGCCACATCACCATCACCCATGTCCCGGAGTCACCTAGTGCAG” it is 10800 fluorescence intensity (a.u.); for “TCTTCCATAAGCAATTTCGCTCAATTATTGGTGAGTTGGACGGAGTCACCTAGTGCAG” it is 4960 fluorescence intensity (a.u.).
For the sequence “TATTCAATATTAGATTTAAATGTAACTATTTTAGTATTGTCGGAGTCACCTAGTGCAG”, the binding signal is 20300 fluorescence intensity (a.u.).
The figure for “TTTGCTAACTAGGATGCCACGTCAGTGAAACCAGAGATCCCGGAGTCACCTAGTGCAG” is 22900 fluorescence intensity (a.u.); for “CGGCCGCGACACGCACACGCCCACCCCACGCCCGCCGCGCCGGAGTCACCTAGTGCAG” it is 3140 fluorescence intensity (a.u.); for “TGGGTTACCGGCGAATGACGTGGCGTTGAAGTAGGCGAACCGGAGTCACCTAGTGCAG” it is 8560 fluorescence intensity (a.u.).
The figure for “TGCTTTAGCTGCACGCTTGGTTGGCAAATGCAGGGCTTCACGGAGTCACCTAGTGCAG” is 3360 fluorescence intensity (a.u.); for “TTTCTATTCTACTGATCAGCACACAAACAGATGAACACAGCGGAGTCACCTAGTGCAG” it is 25700 fluorescence intensity (a.u.); for “CGCGTCCGCAGTGTCCCACTCCCGCCACTCCTTCCACCCCCGGAGTCACCTAGTGCAG” it is 3780 fluorescence intensity (a.u.).
The figure for “CTACTGAGTGATTTGAGTGTGTTGCAAATATTGTTTAATGCGGAGTCACCTAGTGCAG” is 3320 fluorescence intensity (a.u.); for “CGTGGAAGTCAAGAGCGATGACGTGATGAGCACCGGTGTCCGGAGTCACCTAGTGCAG” it is 6640 fluorescence intensity (a.u.).
Regarding “ACAAGGCAACTACTCCTAGCTAGTAAGCATCAATGCATGGCGGAGTCACCTAGTGCAG”, the binding signal was 4520 fluorescence intensity (a.u.).
The value for “ATGGGGAATCTGGCACCTTTGGCTACTGGTGATTCAGTGTCGGAGTCACCTAGTGCAG” was 3510 fluorescence intensity (a.u.); that for “GTATTCCAGACGTATGAGGGTTGTCATGTATGACTTGTATCGGAGTCACCTAGTGCAG” was 4330 fluorescence intensity (a.u.).
The figure for “ACAATTATCTAATGACGGTAGGCAATCCAGCGGATTTCTGCGGAGTCACCTAGTGCAG” is 3330 fluorescence intensity (a.u.); for “AGTACTATTTCATAAACTTCTTCGGATAATTACTCAGTAGCGGAGTCACCTAGTGCAG” it is 3210 fluorescence intensity (a.u.).
The value for “GCGTTTGGTTTGGTGTGCTCTTAAAATATTGCTCATTAGACGGAGTCACCTAGTGCAG” was 3670 fluorescence intensity (a.u.); that for “GTTTCTCTTCGTCGACGTCTCCTGCAAGATCGTTTGGACCCGGAGTCACCTAGTGCAG” was 3490 fluorescence intensity (a.u.); that for “CAACTACTTATCACACATTTACACGCATACACTTGGCCACCGGAGTCACCTAGTGCAG” was 5160 fluorescence intensity (a.u.).
On to “CCATCCAAACAGCCCCATCTTATCCGATAACTACAAGCAACGGAGTCACCTAGTGCAG”, for which the binding signal was 31200 fluorescence intensity (a.u.).
The figure for “ATAAAACCAATAGCGACGTGCCACGTTAGCCCATCCACGTCGGAGTCACCTAGTGCAG” is 12500 fluorescence intensity (a.u.).
On to “TGCATGTGGTTGGTCTATGTTTCTTTGAGCCGTGTTAGGACGGAGTCACCTAGTGCAG”, for which the binding signal was 18100 fluorescence intensity (a.u.).
The figure for “GGCGAGACGGGGAGAGGAGGGGAGGGTGACGGCGGCCGGACGGAGTCACCTAGTGCAG” is 3300 fluorescence intensity (a.u.); for “ACACATGTGACTCGAATTTTCTGATAAGAATCAAGCTACTCGGAGTCACCTAGTGCAG” it is 4230 fluorescence intensity (a.u.); for “CTGGAATGAGATTCAATCATTTTGGAGTTGACAATCCCAACGGAGTCACCTAGTGCAG” it is 26800 fluorescence intensity (a.u.).
The figure for “CATTCCAGGCAGTTTGAGGTGGGAGTATTGGATTGGTTTGCGGAGTCACCTAGTGCAG” is 4090 fluorescence intensity (a.u.); for “CAGACTGTTGGGAGCCACGTCAGCCGGCGGCCTCCGCCGTCGGAGTCACCTAGTGCAG” it is 19200 fluorescence intensity (a.u.); for “GAGGAAGAAGGATGACATGTGGGGTCCACATGTCAGTGGGCGGAGTCACCTAGTGCAG” it is 3510 fluorescence intensity (a.u.).
